# According to patent publication US12268683B2, “Compounds and methods for synergistic activation of M channels” (THE REGENTS OF THE UNIVERSITY OF CALIFORNIA, priority 2018, dated 2025):
# For at least one compound, name, drawing or mass did not settle the structure.
# Key:
# [1] = target: KCNQ2 (Homo sapiens, UniProt O43526); conditions: 10 μM RTG; cited from earlier work
# [2] = target: KCNQ2/3 (Homo sapiens, UniProt O43525+O43526); assay: TEVC of heteromeric KCNQ2/3 channels expressed in Xenopus laevis oocytes; type: cell-based
# Text: cRNA transcripts encoding human KCNA1, KCNQ1, KCNQ2, KCNQ3, KCNQ4, or KCNQ5 were generated by in vitro transcription using the T7 polymerase message machine kit (Thermo Fisher Scientific), after vector linearization, from cDNA sub-cloned into plasmids incorporating X. laevis β-globin 5′ and 3′ UTRs flanking the coding region to enhance translation and cRNA stability. cRNA was quantified by spectrophotometry. Mutant cDNAs were generated by site-directed mutagenesis using a QuikChange kit according to manufacturer's protocol (Stratagene, San Diego, Calif.) and corresponding cRNAs prepared as above. Defolliculated stage V and VI X. laevis oocytes (Ecocyte Bioscience, Austin, Tex.) were injected with Kv channel a subunit cRNAs (10 ng total per oocyte). Oocytes were incubated at 16° C. in Barth's saline solution (Ecocyte) containing penicillin and streptomycin, with daily washing, for 3-5 days prior to two-electrode voltage-clamp (TEVC) recording.
# TEVC recording was performed at room temperature with an OC-725C amplifier (Warner Instruments, Hamden, Conn.) and pClamp10.2 software (Molecular Devices, Sunnyvale, Calif.) 3-5 days after cRNA injection as described in the section above. Oocytes were placed in a small-volume oocyte bath (Warner) and viewed with a dissection microscope. Chemicals were sourced from Sigma. Bath solution was (in mM): 96 NaCl, 4 KCl, 1 MgCl2, 1 CaCl2. 10 HEPES (pH 7.6). […] MTX (DMSO), sorbic acid (ethanol), and glutaconic acid (molecular grade H2O) were stored at −20° C. as 1 M stocks. Oleamide was stored as a 1 mM stock in ethanol at 4° C. Palmitic acid was conjugated with bovine serum albumin as a 1 mM stock and stored at −20° C. All compounds were diluted to working concentrations each experimental day. All compounds were introduced to the recording bath via gravity perfusion at a constant flow of 1 ml/min for 3 min prior to recording. Pipettes were of 1-2 MΩ resistance when filled with 3 M KCl. Currents were recorded in response to pulses between −80 and +40 mV at 20 mV intervals, or a single pulse to +40 mV, from a holding potential of −80 mV, to yield current-voltage relationships, current magnitude, and for quantifying activation rate. TEVC data analysis was performed with Clampfit10.2 (Molecular Devices) and Graphpad Prism software (GraphPad, San Diego, Calif., USA); values are stated as mean±SEM. […]
# cRNA transcripts encoding human KCNQ2, KCNQ3, KCNQ4, KCNQ5 (Kv7.2-Kv7.5) were generated by in vitro transcription using the T7 polymerase mMessage mMachine kit (Thermo Fisher Scientific), after vector linearization, from cDNA sub-cloned into plasmids incorporating Xenopus laevis β-globin 5′ and 3′ UTRs flanking the coding region to enhance translation and cRNA stability. cRNA was quantified by spectrophotometry. […]
smiles,measurement,setting,value
"CCOC(=O)Nc1ccc(NCc2ccc(F)cc2)cc1N [RTG, retigabine]",reported shift of midpoint voltage of KCNQ2 activation,[1],−24 mV
same,effect on KCNQ2/3 at low dose,[2]; 1 μM alone,negligible effects
same,shift in voltage dependence of KCNQ2/3 activation,[2]; 30 μM retigabine,−30 mV
same,shift of V0.5 of KCNQ2/3 activation (ΔV0.5),"[2]; RTG 10 μM, MTX 30 μM, IVA 500 μM, alone or in combination",−13 mV
same,KCNQ2/3 current fold-increase,"[2]; −60 mV, 30 μM",sixfold
